Results are given in words; binding and its absence hold for the method and conditions named. In cells and extracts the contact can be indirect. Some results given as binding are weak or reduced against the parent protein; the word gives no strength. Where a sequence is shown, tags or fusion partners need not be part of it.
Target: SMARCC1 (SWI/SNF related, matrix associated, actin dependent regulator or chromatin subfamily c, member 1) (human (endogenous in HEK 293T)) (UniProt Q92922)
Test: co-IP; HEK 293T cells transfected with myc-BBS6, fractionated into cytoplasm and nucleus; IP of each fraction with SMARCC1 antibody; western blot probed for myc-BBS6

Amino acid sequences for entries named in this document (tags omitted).
UniProt Q92922: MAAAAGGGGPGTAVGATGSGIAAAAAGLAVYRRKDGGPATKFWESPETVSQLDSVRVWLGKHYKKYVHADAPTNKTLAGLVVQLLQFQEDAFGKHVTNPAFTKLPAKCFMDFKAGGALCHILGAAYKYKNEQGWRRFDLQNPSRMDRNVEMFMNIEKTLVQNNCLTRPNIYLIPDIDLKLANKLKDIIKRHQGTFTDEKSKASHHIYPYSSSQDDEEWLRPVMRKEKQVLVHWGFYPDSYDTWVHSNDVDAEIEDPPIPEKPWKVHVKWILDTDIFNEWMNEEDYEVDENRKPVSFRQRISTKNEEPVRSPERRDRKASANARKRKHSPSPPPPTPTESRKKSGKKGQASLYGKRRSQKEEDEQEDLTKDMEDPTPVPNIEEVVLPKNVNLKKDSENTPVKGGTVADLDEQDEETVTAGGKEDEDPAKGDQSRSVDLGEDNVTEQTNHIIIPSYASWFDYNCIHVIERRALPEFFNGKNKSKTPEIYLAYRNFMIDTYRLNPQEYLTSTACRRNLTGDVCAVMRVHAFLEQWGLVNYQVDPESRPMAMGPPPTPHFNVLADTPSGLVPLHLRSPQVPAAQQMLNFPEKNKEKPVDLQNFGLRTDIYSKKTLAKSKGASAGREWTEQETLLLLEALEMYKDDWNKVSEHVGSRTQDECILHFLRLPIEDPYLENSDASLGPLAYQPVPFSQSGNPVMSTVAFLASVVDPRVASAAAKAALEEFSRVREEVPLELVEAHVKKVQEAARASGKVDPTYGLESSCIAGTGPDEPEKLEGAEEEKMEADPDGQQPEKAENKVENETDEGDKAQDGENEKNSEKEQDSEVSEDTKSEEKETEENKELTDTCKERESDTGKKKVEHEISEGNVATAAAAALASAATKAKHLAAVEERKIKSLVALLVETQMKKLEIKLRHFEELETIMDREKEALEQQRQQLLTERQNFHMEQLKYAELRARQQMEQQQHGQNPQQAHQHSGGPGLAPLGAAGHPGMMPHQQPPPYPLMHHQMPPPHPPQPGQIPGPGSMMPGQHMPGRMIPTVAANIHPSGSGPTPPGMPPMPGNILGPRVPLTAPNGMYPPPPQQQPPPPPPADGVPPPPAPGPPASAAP

B1: myc-tagged human BBS6 expressed in HEK 293T cells (protein, UniProt Q9NPJ1 1-570)
chain: MSRLEAKKPSLCKSEPLTTERVRTTLSVLKRIVTSCYGPSGRLKQLHNGFGGYVCTTSQSSALLSHLLVTHPILKILTASIQNHVSSFSDCGLFTAILCCNLIENVQRLGLTPTTVIRLNKHLLSLCISYLKSETCGCRIPVDFSSTQILLCLVRSILTSKPACMLTRKETEHVSALILRAFLLTIPENAEGHIILGKSLIVPLKGQRVIDSTVLPGILIEMSEVQLMRLLPIKKSTALKVALFCTTLSGDTSDTGEGTVVVSYGVSLENAVLDQLLNLGRQLISDHVDLVLCQKVIHPSLKQFLNMHRIIAIDRIGVTLMEPLTKMTGTQPIGSLGSICPNSYGSVKDVCTAKFGSKHFFHLIPNEATICSLLLCNRNDTAWDELKLTCQTALHVLQLTLKEPWALLGGGCTETHLAAYIRHKTHNDPESILKDDECTQTELQLIAEAFCSALESVVGSLEHDGGEILTDMKYGHLWSVQADSPCVANWPDLLSQCGCGLYNSQEELNWSFLRSTRRPFVPQSCLPHEAVGSASNLTLDCLTAKLSGLQVAVETANLILDLSYVIEDKN
For B1, the binding was “binds”.
